# Reference: the supplement of paper PMC8728848
# This is one part of the list.
# Assays:
# Test in all cases: glycan array binding signal (z-score within array); higher = stronger binding
# Settings in all cases: glycan notation: IUPAC condensed, linker removed
# [1] = biological target: Neu5Ac(a2-3)Gal(b1-4)GlcNAc(b1-6)GalNAc
# Procedure, shortened: (§1)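 The binding signal is a Z-score computed within each array. Data were drawn from 3228 arrays in the Consortium for Functional Glycomics database, restricted to those with a known protein sequence. Scores were averaged over arrays of the same protein sequence at different concentrations or buffers, and over linkers, and negative values can be taken as non-binding.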
# [2] = biological target: Neu5Ac(a2-3)Gal(b1-4)GlcNAc(b1-6)[Gal(b1-3)]GalNAc
# Procedure, shortened: as §1
# [3] = biological target: Neu5Ac(a2-3)Gal(b1-4)GlcNAc(b1-6)[Neu5Ac(a2-3)Gal(b1-3)]GalNAc
# Procedure, shortened: as §1
# [4] = biological target: Neu5Ac(a2-3)Gal(b1-4)GlcNAc6S
# Procedure, shortened: as §1
# [5] = biological target: Neu5Ac(a2-3)Gal(b1-4)[Fuc(a1-3)]GlcNAc
# Procedure, shortened: as §1
# [6] = biological target: Neu5Ac(a2-3)Gal(b1-4)[Fuc(a1-3)]GlcNAc(b1-2)Man
# Procedure, shortened: as §1
# [7] = biological target: Neu5Ac(a2-3)Gal(b1-4)[Fuc(a1-3)]GlcNAc(b1-3)Gal
# Procedure, shortened: as §1
# [8] = biological target: Neu5Ac(a2-3)Gal(b1-4)[Fuc(a1-3)]GlcNAc(b1-3)Gal(b1-4)GlcNAc
# Procedure, shortened: as §1
# [9] = biological target: Neu5Ac(a2-3)Gal(b1-4)[Fuc(a1-3)]GlcNAc(b1-3)Gal(b1-4)[Fuc(a1-3)]GlcNAc(b1-3)Gal(b1-4)[Fuc(a1-3)]GlcNAc
# Procedure, shortened: as §1
# [10] = biological target: Neu5Ac(a2-3)Gal(b1-4)[Fuc(a1-3)]GlcNAc(b1-3)GalNAc
# Procedure, shortened: as §1
# [11] = biological target: Neu5Ac(a2-3)Gal(b1-4)[Fuc(a1-3)]GlcNAc(b1-6)[Gal(b1-3)]GalNAc
# Procedure, shortened: as §1
# [12] = biological target: Neu5Ac(a2-3)Gal(b1-4)[Fuc(a1-3)]GlcNAc(b1-6)[Neu5Ac(a2-3)Gal(b1-3)]GalNAc
# Procedure, shortened: as §1
# [13] = biological target: Neu5Ac(a2-3)Gal(b1-4)[Fuc(a1-3)]GlcNAc6S
# Procedure, shortened: as §1
# [14] = biological target: Neu5Ac(a2-3)Gal6S(b1-4)GlcNAc
# Procedure, shortened: as §1
# [15] = biological target: Neu5Ac(a2-3)Gal6S(b1-4)[Fuc(a1-3)]GlcNAc
# Procedure, shortened: as §1
# [16] = biological target: Neu5Ac(a2-3)GalNAc
# Procedure, shortened: as §1
# [17] = biological target: Neu5Ac(a2-3)GalNAc(b1-4)GlcNAc
# Procedure, shortened: as §1
# [18] = biological target: Neu5Ac(a2-3)[GalNAc(b1-4)]Gal(b1-4)Glc
# Procedure, shortened: as §1
# [19] = biological target: Neu5Ac(a2-3)[GalNAc(b1-4)]Gal(b1-4)GlcNAc
# Procedure, shortened: as §1
# [20] = biological target: Neu5Ac(a2-3)[GalNAc(b1-4)]Gal(b1-4)GlcNAc(b1-3)GalNAc
# Procedure, shortened: as §1
# [21] = biological target: Neu5Ac(a2-3)[Neu5Ac(a2-6)]GalNAc
# Procedure, shortened: as §1
# [22] = biological target: Neu5Ac(a2-6)Gal
# Procedure, shortened: as §1
# [23] = biological target: Neu5Ac(a2-6)Gal(b1-3)GlcNAc(b1-3)[Gal(b1-4)GlcNAc(b1-6)]Gal(b1-4)Glc
# Procedure, shortened: as §1
# [24] = biological target: Neu5Ac(a2-6)Gal(b1-4)Glc
# Procedure, shortened: as §1
# [25] = biological target: Neu5Ac(a2-6)Gal(b1-4)GlcNAc
# Procedure, shortened: as §1
# [26] = biological target: Neu5Ac(a2-6)Gal(b1-4)GlcNAc(b1-2)Man
# Procedure, shortened: as §1
# [27] = biological target: Neu5Ac(a2-6)Gal(b1-4)GlcNAc(b1-2)Man(a1-3)Man(b1-4)GlcNAc(b1-4)GlcNAc
# Procedure, shortened: as §1
# [28] = biological target: Neu5Ac(a2-6)Gal(b1-4)GlcNAc(b1-2)Man(a1-3)[Gal(b1-4)GlcNAc(b1-2)Man(a1-6)]Man(b1-4)GlcNAc(b1-4)GlcNAc
# Procedure, shortened: as §1
# [29] = biological target: Neu5Ac(a2-6)Gal(b1-4)GlcNAc(b1-2)Man(a1-3)[GlcNAc(b1-2)Man(a1-6)]Man(b1-4)GlcNAc(b1-4)GlcNAc
# Procedure, shortened: as §1
# [30] = biological target: Neu5Ac(a2-6)Gal(b1-4)GlcNAc(b1-2)Man(a1-3)[GlcNAc(b1-4)][Neu5Ac(a2-6)Gal(b1-4)GlcNAc(b1-2)Man(a1-6)]Man(b1-4)GlcNAc(b1-4)GlcNAc
# Procedure, shortened: as §1
# [31] = biological target: Neu5Ac(a2-6)Gal(b1-4)GlcNAc(b1-2)Man(a1-3)[Man(a1-6)]Man(b1-4)GlcNAc(b1-4)GlcNAc
# Procedure, shortened: as §1
binder,measurement,setting,value
PX9961W-pdi-543-27-543 (Parabacteroides distasonis) (protein) EGNATTTSYFLNDQQAIDAIDGLYERFHQEGCYGRELFWEQGAACDIVWGRTRGYNSLATLAYTGDESPLRDVFSRMYSTMSRANWIIQELVKKEKGTTLTAVEKRSLGEAYFSRGWAHYLIAYRYGTDKQGVPFVRYEDFPDDYDNSIPPQQATVMDNYKLIIEDMDKAIAYLPIFESYDADNRGRAHQAAAVAFKAKTYAYWATWDATQWNNVIEMVNQLENNYNRDLAPTFAELFSSDLKDYWNAEYLWTIPSIGGALPGGTEFPGIILENKGWGKYNGWGQMKPSYDIYEEMAKDGKGNDRLVRSILEYNQEFPFFGETRKFWSTSDLEAGFMINKYMDAFKYSDPVGEGAVSANGDWPTVRVNFPIIRFAEMLLFRAEAYLMTGQADKATADINRIRLRSNLTPLTGTATMKDLYHERRCELAFEFTDHLFDLKRWNRSSNADIKTLADKELNAHPRIRRYEDRANPESAFTIIGYEDYTNKNAYQAHMMVFPYPSEEITKSNGQLKQNEGY,glycan array binding signal (z-score),[1],-0.049
same,glycan array binding signal (z-score),[2],0.953
same,glycan array binding signal (z-score),[3],-1.34
same,glycan array binding signal (z-score),[4],-0.696
same,glycan array binding signal (z-score),[5],-0.648
same,glycan array binding signal (z-score),[6],0.168
same,glycan array binding signal (z-score),[7],-0.289
same,glycan array binding signal (z-score),[8],0.072
same,glycan array binding signal (z-score),[9],0.158
same,glycan array binding signal (z-score),[10],0.167
same,glycan array binding signal (z-score),[11],-0.155
same,glycan array binding signal (z-score),[12],0.572
same,glycan array binding signal (z-score),[13],-0.871
same,glycan array binding signal (z-score),[14],-0.643
same,glycan array binding signal (z-score),[15],-0.612
same,glycan array binding signal (z-score),[16],1.34
same,glycan array binding signal (z-score),[17],0.696
same,glycan array binding signal (z-score),[18],-0.926
same,glycan array binding signal (z-score),[19],-0.518
same,glycan array binding signal (z-score),[20],-0.182
same,glycan array binding signal (z-score),[21],-0.141
same,glycan array binding signal (z-score),[22],-0.157
same,glycan array binding signal (z-score),[23],-0.925
same,glycan array binding signal (z-score),[24],-0.885
same,glycan array binding signal (z-score),[25],-0.299
same,glycan array binding signal (z-score),[26],-1.14
same,glycan array binding signal (z-score),[27],-0.037
same,glycan array binding signal (z-score),[28],-0.974
same,glycan array binding signal (z-score),[29],-1.33
same,glycan array binding signal (z-score),[30],-0.023
same,glycan array binding signal (z-score),[31],-0.07

# Shown tab-delimited: part of the list above
binder	measurement	setting	value
PX9961W-pdi-543-27-543 (Parabacteroides distasonis) (protein) EGNATTTSYFLNDQQAIDAIDGLYERFHQEGCYGRELFWEQGAACDIVWGRTRGYNSLATLAYTGDESPLRDVFSRMYSTMSRANWIIQELVKKEKGTTLTAVEKRSLGEAYFSRGWAHYLIAYRYGTDKQGVPFVRYEDFPDDYDNSIPPQQATVMDNYKLIIEDMDKAIAYLPIFESYDADNRGRAHQAAAVAFKAKTYAYWATWDATQWNNVIEMVNQLENNYNRDLAPTFAELFSSDLKDYWNAEYLWTIPSIGGALPGGTEFPGIILENKGWGKYNGWGQMKPSYDIYEEMAKDGKGNDRLVRSILEYNQEFPFFGETRKFWSTSDLEAGFMINKYMDAFKYSDPVGEGAVSANGDWPTVRVNFPIIRFAEMLLFRAEAYLMTGQADKATADINRIRLRSNLTPLTGTATMKDLYHERRCELAFEFTDHLFDLKRWNRSSNADIKTLADKELNAHPRIRRYEDRANPESAFTIIGYEDYTNKNAYQAHMMVFPYPSEEITKSNGQLKQNEGY	glycan array binding signal (z-score)	[18]	-0.926
same	glycan array binding signal (z-score)	[19]	-0.518
